Data reported in article PMC9816108.

Amino acid sequences for entries named in this document (tags omitted). Residues count along the entry.
UniProt P26048, residues 29-451: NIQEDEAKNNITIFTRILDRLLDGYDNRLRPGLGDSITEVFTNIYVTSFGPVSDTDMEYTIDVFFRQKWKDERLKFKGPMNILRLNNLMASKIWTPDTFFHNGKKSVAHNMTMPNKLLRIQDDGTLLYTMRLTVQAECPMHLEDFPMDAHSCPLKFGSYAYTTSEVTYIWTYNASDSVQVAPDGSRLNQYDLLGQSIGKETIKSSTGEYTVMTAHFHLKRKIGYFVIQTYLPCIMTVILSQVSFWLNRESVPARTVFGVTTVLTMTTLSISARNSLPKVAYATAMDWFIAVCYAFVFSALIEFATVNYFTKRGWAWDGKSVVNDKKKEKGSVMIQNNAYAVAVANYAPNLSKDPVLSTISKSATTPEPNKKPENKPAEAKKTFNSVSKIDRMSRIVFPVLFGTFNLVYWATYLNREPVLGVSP

T1: GABAA receptor α1 subunit (mouse (endogenous in forebrain)), P62812
T1 chain: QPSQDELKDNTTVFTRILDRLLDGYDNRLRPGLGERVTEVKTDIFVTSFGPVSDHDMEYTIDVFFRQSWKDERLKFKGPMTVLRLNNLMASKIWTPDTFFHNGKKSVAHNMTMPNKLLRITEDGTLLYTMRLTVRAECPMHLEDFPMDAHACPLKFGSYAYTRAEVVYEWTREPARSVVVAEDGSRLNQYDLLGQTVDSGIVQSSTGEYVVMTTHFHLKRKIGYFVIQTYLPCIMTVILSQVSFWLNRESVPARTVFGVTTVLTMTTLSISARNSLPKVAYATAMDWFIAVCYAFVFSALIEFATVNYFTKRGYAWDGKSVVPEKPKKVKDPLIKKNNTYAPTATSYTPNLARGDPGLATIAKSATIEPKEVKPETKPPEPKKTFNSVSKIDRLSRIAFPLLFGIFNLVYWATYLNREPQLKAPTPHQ


Tests used:
[1] = target: T1, GABAA receptor α1 subunit (mouse …); assay: affinity purification with mass spectrometry; mouse forebrain plasma membranes solubilised in 0.5% Triton; α1 receptors with immobilised α1 monoclonal antibody from wild type tissue, α2 receptors with anti-9E10 (myc) beads from pHα2 tissue; soft elution, BN-PAGE, 250 kDa band excised, LC-MS/MS against control purifications; details: remark: other sources report otherwise
[2] = target: GABAA receptor α2 subunit modified with pHluorin and 9E10 (myc) epitope on its N-terminus (mouse (knock-in, forebrain)) (UniProt P26048); assay: affinity purification with mass spectrometry; α1 and α2 (pHα2) receptors immunopurified from mouse forebrain plasma membrane fractions, BN-PAGE, 720 kDa species excised, label-free LC-MS/MS; only proteins significantly enriched over control (non-immune IgG, or anti-9E10 in wild type tissue)
[3] = target: T1, GABAA receptor α1 subunit (mouse …); assay: as above; details: remark: other sources report otherwise
[4] = target: GABAA receptor α1 subunit (mouse (endogenous in forebrain)) (UniProt P62812); assay: as above

binding [2]	binding [4]	Binder	further results
		GABAA receptor α4 subunit, Q9D6F4 36-552 (receptor) QNSKDEKLCPENFTRILDSLLDGYDNRLRPGFGGPVTEVKTDIYVTSFGPVSDVEMEYTMDVFFRQTWIDKRLKYDGPIEILRLNNMMVTKVWTPDTFFRNGKKSVSHNMTAPNKLFRIMRNGTILYTMRLTISAECPMRLVDFPMDGHACPLKFGSYAYPKSEMIYTWTKGPEKSVEVPKESSSLVQYDLIGQTVSSETIKSITGEYIVMTVYFHLRRKMGYFMIQTYIPCIMTVILSQVSFWINKESVPARTVFGITTVLTMTTLSISARHSLPKVSYATAMDWFIAVCFAFVFSALIEFAAVNYFTNIQMQKAKKKISKPPPEVPAAPVLKEKHTETSLQNTHANLNMRKRTNALVHSESDVKSRTEVGNHSSKTSAVQESSEATPKAHLASSPNPFSRANAAETMSAAARGLSSAASPSPHGTLRPASLGSASTRPAFGSRLGRIKTTVNTTGAAGNVSATPPPPAPPPSGSGTSKIDKYARILFPVTFGAFNMVYWVVYLSKDTMEKSESLM	binding [1]: no binding
binds		Cntnap1 (protein, UniProt O54991 21-1385) WGYYGCNEELVGPLYARSLGASSYYGLFTTARFARLHGISGWSPRIGDPNPWLQIDLMKKHRIRAVATQGAFNSWDWVTRYMLLYGDRVDSWTPFYQKGHNATFFGNVNDSAVVRHDLHYHFTARYIRIVPLAWNPRGKIGLRLGIYGCPYTSSILYFDGDDAISYRFQRGASQSLWDVFAFSFKTEEKDGLLLHTEGSQGDYVTLELQGAHLLLHMSLGSSPIQPRPGHTTVSLGGVLNDLSWHYVRVDRYGRDANFTLDGYAHHFVLNGDFERLNLENEIFIGGLVGAARKNLAYRHNFRGCIENVIYNRINIAEMAVMRHSRITFEGNVAFRCLDPVPHPINFGGPHNFVQVPGFPRRGRLAVSFRFRTWDLTGLLLFSHLGDGLGHVELMLSEGQVNVSIAQTGRKKLQFAAGYRLNDGFWHEVNFVAQENHAVISIDDVEGAEVRVSYPLLIRTGTSYFFGGCPKPASRWGCHSNQTAFHGCMELLKVDGQLVNLTLVEFRKLGYFAEVLFDTCGITDRCSPNMCEHDGRCYQSWDDFICYCELTGYKGVTCHEPLYKESCEAYRLSGKYSGNYTIDPDGSGPLKPFVVYCDIRENRAWTVVRHDRLWTTRVTGSSMDRPFLGAIQYWNASWEEVSALANASQHCEQWIEFSCYNSRLLNTAGGYPYSFWIGRNEEQHFYWGGSQPGIQRCACGLDQSCVDPALHCNCDADQPQWRTDKGLLTFVDHLPVTQVVVGDTNRSNSEAQFFLRPLRCYGDRNSWNTISFHTGAALRFPPIRANHSLDVSFYFRTSAPSGVFLENMGGPFCRWRRPYVRVELNTSRDVVFAFDIGNGDENLTVHSDDFEFNDDEWHLVRAEINVKQARLRVDHRPWVLRPMPLQTYIWLVYDQPLYVGSAELKRRPFVGCLRAMRLNGVTLNLEGRANASEGTFPNCTGHCTHPRFPCFHGGRCVERYSYYTCDCDLTAFDGPYCNHDIGGFFETGTWMRYNLQSALRSAAREFSHMLSRPVPGYEPGYVPGYDTPGYVPGYHGPGYRLPEYPRPGRPVPGYRGPVYNVTGEEVSFSFSTNSAPAVLLYVSSFVRDYMAVLIKEDGTLQLRYQLGTSPYVYQLTTRPVTDGQPHSVNITRVYRNLFIQVDYFPLTEQKFSLLVDSQLDSPKALYLGRVMETGVIDPEIQRYNTPGFSGCLSGVRFNNVAPLKTHFRTPRPMTAELAEAMRVQGELSESNCGAMPRLVSEVPPELDPWYLPPDFPYYHDDGWIAILLGFLVAFLLLGLVGMLVLFYLQNHRYKGSYHTNEPKATHDSHPGGKAPLPPSGPAQAPAPTPAPTQLPTPAPAPAPAPASGPGPRDQNLPQILEESRSE	
		gephyrin, Q8BUV3 1-769 (protein) MATEGMILTNHDHQIRVGVLTVSDSCFRNLAEDRSGINLKDLVQDPSLLGGTISAYKIVPDEIEEIKETLIDWCDEKELNLILTTGGTGFAPRDVTPEATKEVIEREAPGMALAMLMGSLNVTPLGMLSRPVCGIRGKTLIINLPGSKKGSQECFQFILPALPHAIDLLRDAIVKVKEVHDELEDLPSPPPPLSPPPTTSPHKQTEDKGVQCEEEEEEKKDSGVASTEDSSSSHITAAALAAKIPDSIISRGVQVLPRDTASLSTTPSESPRAQATSRLSTASCPTPKQIRRPDESKGVASRVGSLKARLPSCSSTYSVSEVQSRCSSKENILRASHSAVDITKVARRHRMSPFPLTSMDKAFITVLEMTPVLGTEIINYRDGMGRVLAQDVYAKDNLPPFPASVKDGYAVRAADGPGDRFIIGESQAGEQPTQTVMPGQVMRVTTGAPIPCGADAVVQVEDTELIRESDDGTEELEVRILVQARPGQDIRPIGHDIKRGECVLAKGTHMGPSEIGLLATVGVTEVEVNKFPVVAVMSTGNELLNPEDDLLPGKIRDSNRSTLLATIQEHGYPTINLGIVGDNPDDLLNALNEGISRADVIITSGGVSMGEKDYLKQVLDIDLHAQIHFGRVFMKPGLPTTFATLDIDGVRKIIFALPGNPVSAVVTCNLFVVPALRKMQGILDPRPTIIKARLSCDVKLDPRPEYHRCILTWHHQEPLPWAQSTGNQMSSRLMSMRSANGLLMLPPKTEQYVELHKGEVVDVMVIGRL	binding [3]: binds
binds		gephyrin (protein, UniProt Q8BUV3 1-769) MATEGMILTNHDHQIRVGVLTVSDSCFRNLAEDRSGINLKDLVQDPSLLGGTISAYKIVPDEIEEIKETLIDWCDEKELNLILTTGGTGFAPRDVTPEATKEVIEREAPGMALAMLMGSLNVTPLGMLSRPVCGIRGKTLIINLPGSKKGSQECFQFILPALPHAIDLLRDAIVKVKEVHDELEDLPSPPPPLSPPPTTSPHKQTEDKGVQCEEEEEEKKDSGVASTEDSSSSHITAAALAAKIPDSIISRGVQVLPRDTASLSTTPSESPRAQATSRLSTASCPTPKQIRRPDESKGVASRVGSLKARLPSCSSTYSVSEVQSRCSSKENILRASHSAVDITKVARRHRMSPFPLTSMDKAFITVLEMTPVLGTEIINYRDGMGRVLAQDVYAKDNLPPFPASVKDGYAVRAADGPGDRFIIGESQAGEQPTQTVMPGQVMRVTTGAPIPCGADAVVQVEDTELIRESDDGTEELEVRILVQARPGQDIRPIGHDIKRGECVLAKGTHMGPSEIGLLATVGVTEVEVNKFPVVAVMSTGNELLNPEDDLLPGKIRDSNRSTLLATIQEHGYPTINLGIVGDNPDDLLNALNEGISRADVIITSGGVSMGEKDYLKQVLDIDLHAQIHFGRVFMKPGLPTTFATLDIDGVRKIIFALPGNPVSAVVTCNLFVVPALRKMQGILDPRPTIIKARLSCDVKLDPRPEYHRCILTWHHQEPLPWAQSTGNQMSSRLMSMRSANGLLMLPPKTEQYVELHKGEVVDVMVIGRL	
	binds	Ina (protein, UniProt P46660 1-501) MSFGSEHYLCSASSYRKVFGDSSRLSARLSGPGGSGSFRSQSLSRSNVASTAACSSASSLGLGLAYRRLPASDGLDLSQAAARTNEYKIIRTNEKEQLQGLNDRFAVFIEKVHQLETQNRALEAELAALRQRHAEPSRVGELFQRELRELRAQLEEASSARAQALLERDGLAEEVQRLRARCEEESRGREGAERALKAQQRDVDGATLARLDLEKKVESLLDELAFVRQVHDEEVAELLATLQASSQAAAEVDVAVAKPDLTSALREIRAQYESLAAKNLQSAEEWYKSKFANLNEQAARSTEAIRASREEIHEYRRQLQARTIEIEGLRGANESLERQILELEERHSAEVAGYQDSIGQLESDLRNTKSEMARHLREYQDLLNVKMALDIEIAAYRKLLEGEETRFSTGGLSISGLNPLPNPSYLLPPRILSSTASKVSSAGLSLKKEEEEEEEEASKEVSKKTSKVGEGFEETLGEAVISTKKTGKSATEESTSSSQKM	
	binds	Synpo (protein, UniProt Q8CC35 1-929) MLGAHFPPPPLGASEGRAAPCTFQIPDGSYRCLALEAEESSSEDGLQGEVRLVDLEEEGTSQSRANHGTPPLSRAPAIIQPSSCHREARGGFQRSDRPSHDWDVVQARKVMTASGSSSPVPRVAQKPALGRSTSFTENDLKEAKARSQQIAAQLTTPPSSNSRGVQLFNRRRQRVNEFTLESRGQRSPKLNQEALQTGRPLSPIGHAPGPSVKPTSPSKPGSPKHPSPQSPSRGVAGHIMEGYSEEASLLRHLEKVASEEEEVPLVVYLKENAALLTANGLHLSQSRETQQSSPNPPDTEVPSPAADINQNPSSPNATLTTLASSSHHSQPTADINQNPPAAITPVPQNSSQAQCSPNGTLDSKPGTLCADDGQSPVPAEEVRSSILLIDKVSAPPSAASTFSREATPLSSSGPPAADLMSSSLLIDMQPSTLVAPAEQEVPGHVAVTTPTKVYSEVHLTLAKPASVVNRTARPFGIQSPGTSQIEQSPMMGRRQFGEKAWAPPASSMADRSPQPQRHIMSRSPMVERRLLGQRSPVLERRPLGNFTPPPTYAETLSTAPVASRVRSPPSYSTLYPSSDPKPSHLKGQVAPANKTGILEESMARRGSRKSMFTFVEKPKVTPNPDLLDLVQTADEKRRQRDHGEVGMEEEPFALGAEASNFQQEPIARDRASPAAAEEAVPEWASCLKSPRIQAKPKPKPNQNLSEASGKGAELYARRQSRMEKYVIESSGHAELARCPSPTMSLPSSWKYTTNAPGGFRVASLSPARTPPASLYHGYLPENGVLRPEPTKQQPYQMRPSLYALSPVKEPAKASSRATSSRTPSRTVSPRAASPAKPSSLDLVPNLPRAGLPPSPALPRPSRSSPGLYTAPVQDSLQPTAVSPTYSSDISPVSPSRAWSPRAKQAPRPSFSTRNAGIEAQVWKPSFCFK	

Results are given in words; binding and its absence hold for the method and conditions named. Binding seen in cells or lysates may run through a third protein. These calls come from enrichment with a bait or labelling near it, and not all partners need be listed. For part of these data: No binding means not detected with the bait.
